Some entries share one result that the patent states for a list of compounds.
How the values were obtained:
Type in all cases: in vivo
[1] = tested on: beet armyworm (Spodoptera exigua); experiment: Test C: control of beet armyworm, foliar spray on corn; conditions: sprayed at 50 ppm, visually rated after 6 days
[2] = tested on: fall armyworm (Spodoptera frugiperda); experiment: Test A: control of fall armyworm, foliar spray on corn; conditions: sprayed at 50 ppm, visually assessed after 6 days
[3] = tested on: tobacco budworm (Heliothis virescens); experiment: Test B: control of tobacco budworm, foliar spray on cotton; conditions: sprayed at 50 ppm, visually rated after 6 days

Measured: feeding damage (excellent levels of plant protection)

N#CCCNC(=O)c1cccc(Cl)c1NC(=O)c1cc(C(F)(F)F)nn1-c1ccccc1Cl [Compound 405]
≤ 10%: all assays above

NC(=O)c1cccc(Cl)c1NC(=O)c1cc(C(F)(F)F)nn1-c1ccccc1Cl [Compound 423]
≤ 10%: all assays above

Cc1cc(Cl)cc(C(=O)NC(C)C)c1NC(=O)c1cc(Cl)nn1-c1ccccc1Cl [Compound 429]
≤ 10%: all assays above

Cc1cc(Br)cc(C(=O)NC(C)C)c1NC(=O)c1cc(Br)nn1-c1c(Cl)cccc1Cl [Compound 430]
≤ 10%: all assays above

CC(C)(C)NC(=O)c1cc(Cl)cc(Cl)c1NC(=O)c1cc(C(F)(F)F)nn1-c1ccccc1Cl [Compound 458]
≤ 10%: all assays above

N#CCNC(=O)c1cc(Cl)cc(Cl)c1NC(=O)c1cc(C(F)(F)F)nn1-c1ccccc1Cl [Compound 459]
≤ 10%: all assays above

Cc1cccc(C(=O)NC(C)C)c1NC(=O)c1cc(C(F)(F)F)nn1-c1ccnn1C [Compound 460]
≤ 10%: all assays above

Cc1cccc(C(=O)NC(C)(C)C)c1NC(=O)c1cc(C(F)(F)F)nn1-c1ccnn1C [Compound 461]
≤ 10%: all assays above

CC(C)NC(=O)c1cccc(Cl)c1NC(=O)c1cc(C(F)(F)F)nn1-c1ccnn1C [Compound 462]
≤ 10%: all assays above

Cc1cccnc1-n1nc(C(F)(F)F)cc1C(=O)Nc1c(C)cc(Cl)cc1C(=O)NC(C)C [Compound 481]
≤ 10%: all assays above

Cc1cccc(C(=O)NC(C)(C)C)c1NC(=O)c1cc(C(F)(F)F)nn1-c1c(Cl)cnn1C [Compound 483]
≤ 10%: all assays above

Cc1cccc(C(=O)NC(C)C)c1NC(=O)c1cc(C(F)(F)F)nn1-c1c(Cl)cnn1C [Compound 484]
≤ 10%: all assays above

CNC(=O)c1cc(Cl)cc(C)c1NC(=O)c1cc(Br)nn1-c1ccc(F)cc1Cl [Compound 589]
≤ 10%: all assays above

Cc1cc(Cl)cc(C(=O)NC(C)C)c1NC(=O)c1cc(Br)nn1-c1ccc(F)cc1Cl [Compound 591]
≤ 10%: all assays above

Cc1cc(Cl)cc(C(=O)NC(C)(C)C)c1NC(=O)c1cc(Br)nn1-c1ccc(F)cc1Cl [Compound 592]
≤ 10%: all assays above

Cc1cc([N+](=O)[O-])cc(C(=O)NC(C)C)c1NC(=O)c1cc(C(F)(F)F)nn1-c1ccccc1Cl [Compound 593]
≤ 10%: all assays above

CNC(=S)c1cccc(C)c1NC(=O)c1cc(C(F)(F)F)nn1-c1ccccc1Cl [Compound 598]
≤ 10%: all assays above

Cc1cc(Cl)cc(C(=O)NC(C)C)c1NC(=O)c1cc(OC(F)F)nn1-c1ccccc1Cl [Compound 600]
≤ 10%: all assays above

Cc1cccc(C(=O)NC(C)C)c1N(C)C(=O)c1cc(Br)nn1-c1ncccc1Cl [Compound 605]
≤ 10%: all assays above

Cc1cc(Cl)cc(C(=S)NC(C)C)c1NC(=O)c1cc(Br)nn1-c1ncccc1Cl [Compound 608]
≤ 10%: all assays above

Cn1ncc(Cl)c1-n1nc(C(F)(F)F)cc1C(=O)Nc1c(Cl)cccc1C(=O)NC(C)(C)C [Compound 613]
≤ 10%: all assays above

Cc1cccnc1NC(=O)c1cc(Br)cc(C)c1NC(=O)c1cc(C(F)(F)F)nn1-c1ncccc1C [Compound 616]
≤ 10%: all assays above

CCNC(=O)c1cc(Cl)cc(C)c1NC(=O)c1cc(OCC)nn1-c1ccccc1Cl [Compound 635]
≤ 10%: all assays above

CCOc1cc(C(=O)Nc2c(C)cc(Cl)cc2C(=O)NC(C)C)n(-c2ccccc2Cl)n1 [Compound 636]
≤ 10%: all assays above

CCOc1cc(C(=O)Nc2c(C)cc(Br)cc2C(=O)NC)n(-c2ccccc2Cl)n1 [Compound 637]
≤ 10%: all assays above

CCNC(=O)c1cc(Cl)cc(C)c1NC(=O)c1cc(OCC(F)(F)F)nn1-c1ccccc1Cl [Compound 658]
≤ 10%: all assays above

Cc1cc(Cl)cc(C(=O)NC(C)C)c1NC(=O)c1cc(OCC(F)(F)F)nn1-c1ccccc1Cl [Compound 659]
≤ 10%: all assays above

CNC(=O)c1cc(Br)cc(C)c1NC(=O)c1cc(OCC(F)(F)F)nn1-c1ccccc1Cl [Compound 660]
≤ 10%: all assays above

CNC(=O)c1cc(Cl)cc(C)c1NC(=O)c1cc(C(F)(F)F)nn1-c1c(Cl)cnn1C [Compound 676]
≤ 10%: all assays above

Cc1cc(Cl)cc(C(=O)NC(C)C)c1NC(=O)c1cc(C(F)(F)F)nn1-c1c(Cl)cnn1C [Compound 677]
≤ 10%: all assays above

Cc1cc(Br)cc(C(=O)NC(C)C)c1NC(=O)c1cc(C(F)(F)F)nn1-c1c(Cl)cnn1C [Compound 689]
≤ 10%: all assays above

Cc1cc(Br)cc(C(=O)NC(C)(C)C)c1NC(=O)c1cc(C(F)(F)F)nn1-c1c(Cl)cnn1C [Compound 690]
≤ 10%: all assays above

CCNC(=O)c1cc(Br)cc(C)c1NC(=O)c1cc(C(F)(F)F)nn1-c1c(Cl)cnn1C [Compound 701]
≤ 10%: all assays above

CNC(=O)c1cc(Br)cc(C)c1NC(=O)c1cc(C(F)(F)F)nn1-c1c(Cl)cnn1C [Compound 713]
≤ 10%: all assays above

CCNC(=O)c1cc(Cl)cc(C)c1NC(=O)c1cc(C(F)(F)F)nn1-c1c(Cl)cnn1C [Compound 714]
≤ 10%: all assays above

Cc1cc(Cl)cc(C(=O)NC(C)(C)C)c1NC(=O)c1cc(C(F)(F)F)nn1-c1c(Cl)cnn1C [Compound 715]
≤ 10%: all assays above

From patent US7696233B2, “Method for controlling particular insect pests by applying anthranilamide compounds” (E. I. du Pont de Nemours and Company, priority 2001, dated 2010)
